Measurements as given in US20070237775A1 (Eli Lilly, published 2007).
Substitutions are numbered along the chain they refer to. Results are given in words; binding and its absence hold for the method and conditions named. Some entries that bind do so weakly or less than the wild type.

T1: des-acyl rat ghrelin (full length) (rat) (UniProt Q9QYH7)
T1 sequence (peptide, looked up): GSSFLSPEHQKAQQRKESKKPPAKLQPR

T2: acylated human ghrelin (full length, amino acids 1-28, C8-acylated) (human)
T2 sequence (peptide, n-octanoyl (C8) acyl group on the serine at position 3): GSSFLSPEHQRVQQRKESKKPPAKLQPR

T3: acylated rat ghrelin (full length, C8-acylated) (rat) (UniProt Q9QYH7)
T3 sequence (peptide, C8 acyl group at amino acid 3, looked up): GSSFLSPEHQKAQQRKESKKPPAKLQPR

T4: des-acyl human ghrelin (full length) (human)
T4 sequence (peptide): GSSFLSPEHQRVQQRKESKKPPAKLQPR

T5: human ghrelin 1-27 (active analog) (human)
T5 sequence (peptide): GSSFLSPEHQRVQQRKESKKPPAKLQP

B1: Fab 3281 (Fab, V domains shown)
VH: QVQLQQSRAELAKPGASVKMSCKASGYTFTSYWMHWVKQGPGQGLEWIGYINPSTGYTEYTQKFKDKATLTADKSSSTAYMQLSSLTSEDSAVYYCATDGYDEDYWGQGTTLTVSS
VL: DAVMTQIPLTLSVTIGQPASISCRSSQSLGHSNGNTYLHWYLQKPGQSPKLLIYKVSNRFSGVPDRFSGSGSGTDFTLKISRVEAEDLGTYFCSQSTLVPWTFGGGTKLEIKR
notes: Murine Fab from an Omniclonal antibody library (immunized C57/Bl6 mice); kappa light chain (captured and detected with goat anti-mouse kappa)
B2: Fab 4281 (Fab, V domains shown)
VH: QVQLQQSRAELAKPGASVKMSCKASGYTFTSYWIHWIKQRPGQGLEWIGYIDPGIGNIEYNQKFQDKATLTADKSSSIVYMQLNRLTSEDSAVYYCATDGYDEDYWGQGTTLTVSS
VL: B1 VL with A2V, I7T, T10S, S12P, T14S, I15L, Q17D, P18Q, G30V
notes: Murine Fab, kappa light chain
B3: Fab 4731 (Fab, V domains shown)
VH: B1 VH
VL: B1 VL with A2V, I7T, T10S, S12P, T14S, I15L, Q17D, P18Q, G30V
notes: Murine Fab, kappa light chain

The binders below were run against T1, des-acyl rat ghrelin (full length) (rat) (assay: ELISA, BIAcore and FLIPR assays).

| binding | Binder |
| --- | --- |
| binds | B1 |
| binds | B2 |
| binds | B3 |

The binders below were run against T2, acylated human ghrelin (full length, amino acids 1-28, C8-acylated) (human) (assay: ELISA, BIAcore and FLIPR assays).

| binding | Binder |
| --- | --- |
| binds | B1 |
| binds | B2 |
| binds | B3 |

The binders below were run against T3, acylated rat ghrelin (full length, C8-acylated) (rat) (assay: ELISA, BIAcore and FLIPR assays).

| binding | Binder |
| --- | --- |
| binds | B1 |
| binds | B2 |
| binds | B3 |

The binders below were run against T4, des-acyl human ghrelin (full length) (human) (assay: ELISA, BIAcore and FLIPR assays).

| binding | Binder |
| --- | --- |
| binds | B1 |
| binds | B2 |
| binds | B3 |

What follows are binders tested against T5, human ghrelin 1-27 (active analog) (human) (assay: FLIPR calcium assay with active analogs).

| binding | Binder |
| --- | --- |
| binds | B1 |
| binds | B2 |
| binds | B3 |
